We go through two substances from doi:10.1101/2024.01.31.578135.

These are yes or no findings as the source states them, for the method shown. In cells and extracts the contact can be indirect. Binding calls can cover weak binding; strength is not graded here.

Holding throughout (test): co-IP
In test [1] the target is C-terminally triple HA-tagged TbTim15 (Trypanosoma brucei) (UniProt Q586P9).
The target of test [2] is C-terminally triple HA-tagged Tb927.8.7010 (Trypanosoma brucei) (UniProt Q57YQ8).
For test [3], the target named is C-terminally triple HA-tagged TbTim20 (Trypanosoma brucei) (UniProt Q386Z2).
Test [4] concerns the target truncated myc-tagged mitochondrial carrier protein 12 (MCP12ΔI-myc) (Trypanosoma brucei) (UniProt Q388W2).

On to TbPam27 (from UniProt Q388L6), for which the binding entry in test [1], in test [2] and in test [3] was “binds” throughout.

For “TbTim15 (Tb927.2.4445) (from UniProt Q586P9)”, the binding entry in test [4] is reported as “binds”.
